At least one structure is not confirmed: it was looked up by name or label, or the drawing left a doubt.
Tested on: YAC-1 lymphoma cells
Experiment: NK cell function, in vivo mouse model assay (lung radioactivity after 51Cr-labeled YAC-1 cells)
Conditions: mice injected 24 hours before i.v. 51Cr-labeled YAC-1 cells; lungs measured 4 hours after YAC-1 injection

Q: For `CNC(=C[N+](=O)[O-])NCCSCc1ccc(CN(C)C)o1` [ranitidine], which “level of lung radioactivity” value is on record?
A: tripling

From US12714695B2, “Histamine receptor agonists for cancer therapy in cancer patients unresponsive to cancer immunotherapy and with elevated myeloid derived suppressor cells” (TSP Therapeutics Inc., priority 2021, dated 2026)
